From patent US20160340704A1, “METHOD OF MAKING A BENZYLISOQUINOLINE ALKALOID (BIA) METABOLITE, ENZYMES THEREFORE” (VALORBEC SOCIÉTÉ EN COMMANDITE, priority 2014, published 2016)
Some of these results come from one statement about several compounds together.

Experiments:
Format in all cases: cell-based, Saccharomyces cerevisiae
scoulerine [1] = test: CYP719s in GC1316 (integrated PsCPR and PsCFS) supplemented with scoulerine; details: CYP719 expressed with PsCFS and PsCPR, 16 hours
Text: (§1) Plasmids harboring CYP719s were transformed into either GC1333 containing an integrated PsCPR (FIG. 10A) or GC1316 containing an integrated PsCPR and an integrated PsCFS (FIG. 10B). Strain GC1333, harboring PsCPR integrated into the chromosome, was transformed with pBOT plasmids, with GFP removed, harboring individual CYP719s (CYP719 EX41-105). (See Tables 7-8 below presenting the nature and activity of these CYP719s).
Plasmids harboring individual CYP719s were transformed into strain GC1316, which harbored PsCPR and PsCFS integrated into the genome. Strains were supplemented with scoulerine and after 16 hours total BIAs were extracted and the molar ratio was compared (FIG. 10B). The four possible BIAs that could be extracted were scoulerine, the single Ring A product nandinine, the single Ring B product cheilanthifoline, and the double Ring A, Ring B product stylopine.

scoulerine [2] = test: CYP719 substrate affinity test on scoulerine in GC1333 (integrated PsCPR): Ring A / Ring B closure; details: single CYP719 with PsCPR, 16 hours
Protocol: To broadly identify CYP719 activities on BIAs, a substrate affinity test was performed with the protoberberine BIA scoulerine. CYP719s have been described to form methylenedioxy bridges on BIAs from an alcohol group and a methyl group on adjacent carbons. Two different rings can be made on scoulerine, which can be called “Ring A” and “Ring B”, with the BIA products being called “nandinine” and “cheilanthifoline”, respectively (see FIG. 19). CYP719-catalyzed formation of both Ring A and Ring B of scoulerine (“Ring A-closing activity” and “Ring B-closing activity”) has been identified and published. Certain CYP719 enzymes included in the affinity tests have published ring A and Ring B activities.
as §1
The resulting CYP719-harboring strains (strains SF41-105) were supplemented with scoulerine. After 16 hours, BIAs were extracted and the molar ratio of scoulerine to downstream BIAs was calculated (FIG. 10A).

scoulerine [3] = test: Combinatorial test of Ring A- and Ring B-closing CYP719s in GC1270 (PsCPR and TNMT) fed scoulerine; details: Ring A closer combined with Ring B closer EX54 or EX98, with TNMT, 16 h
cheilanthifoline = test: CYP719 Ring A closure of cheilanthifoline to stylopine in GC1333; details: cheilanthifoline generated in vivo from scoulerine, in TE
Protocol: FIG. 11A-B: showing conversion of (S)-cheilanthifoline (FIG. 11A) or (S)-nandinine (FIG. 11B) to (S)-stylopine by purchased CYP719s. Plasmids harboring CYP719s were transformed into GC1333 containing an integrated PsCPR. Strains were incubated with the appropriate BIA overnight, and then total BIAs were extracted and total molar ratios were compared. PsSPSΔN was used as a control.
The 10 CYP719s with 95% activity on Ring A of scoulerine and the 10 CYP719s with activity on Ring B of scoulerine were tested for activity on cheilanthifoline and nandinine, respectively, in order to generate a branched stylopine synthesis pathway. […] CYP719s PsCFS and EX101, capable of converting >98% of scoulerine to cheilanthifoline and nandinine, respectively, were incubated with scoulerine. After 16 h, cells were pelleted and the supernatant fraction was collected. The supernatant was then applied to fresh yeast strains in order to supplement them with either TE containing nandinine or cheilanthifoline as necessary.

B1: EX46: CYP719 from Corydalis cheilanthifolia, SEQ ID NO: 325 (protein, listed as Corydalis cheilanthifolia)
chain: MVNAVAEILTEKPWLLPATLLAVIAIAKFFLGKSSTMKWPIGPKTLPIIGNMHQLGGTDLQVVLANLAKTYGTIMTIWVGSWRPMIVLSDIEKAWEVLVNKSSDYSGRAMPEITEIISAKGKTISTSDSGPHWSNLRKGLQNVALSPHNIAAQSRFQESDITKMIKTLKQEAASNNGIVQPLDHLKKSTVRLISRLIFGQDFDDDEYVEAMHLAVEELIRVSGYARLAEAFYYAKYLPSHKRAVSEVWEANRRVKRIVKPRLSANPPPNCYLHFLSSQDYSEEMIIFAIFEAYLLGVDSTSSTTAWALGFLIREPKVQERLYQELKNCAGENGLIKVEDINKLPYLQAVLKETMRMKPIAPLAIPHKAVRETSLAGNKVEPGTRVMVNLYAIHHNPKVWIDPHKFKPERFLQGEENGGGNLKLMEQSLLPFSAGMRTCAGMELGKLQFGFSLANLVNAFQWDCAKKGMFPDMSDLLGFVLLMKTPLQAKIVPRGSPSINGY
With B1 the “conversion of scoulerine to stylopine” value (scoulerine [1]) was greater than 98%.

B2: EX61: CYP719 from Eschscholzia californica, Q50LH3.1, SEQ ID NO: 340 (protein, listed as Eschscholzia californica)
chain: MEEMKILMMNNPWILTATATTLLISIFLFFTRKSSKMVWPAGPKTLPIIGNMHLLGGTALQVVLHNLAKVHGSVMTIWIGSWRPVIVVSDIERAWEVLVNKSSDYSARDMPDITKIISADWKTISTSDSGPHWTNLRKGLQNVALSPHNLAAQFQFQEKDMTKMIQTLQEEARNNNGIVKPLDHMKKATLRLISRLVFGQDFNNDKYVDDMHLAIEELIRVSGYARLAEAFYYAKYLPSHKKAVREVEEAQRRVQNLVSPFLSLNPPTNTYLHFLRSQKYDDEVIIFAIFEAYLLGVDSTSLTTAWALAFLIRESNVQEKLYQELESFASKMDRKILKVEDINKLQYLQAVIKETMRMKPIAPLAIPHKACRDTSLMGKKIDKGTRVMVNIYALHHNKNVFNDPFKFMPERFMKVDSQDANGKAMEQSLLPFSAGMRICAGMELGKLQFSFALANLAYAFKWSCVADGVLPDMSDQLGFVLLMKTPLEARINRRN
In the case of B2, the “conversion of scoulerine to stylopine” value (scoulerine [1]) is reported as greater than 98%.

B3: EX67: CYP719 from Glaucium flavum, SEQ ID NO: 346 (protein, listed as Glaucium flavum)
chain: MEMKSSVVFSYPAMEELFKSNPWVITGTTLAVLILMTTMFRKKSLSMKWPKGPKTLPIIGNMHLLGGTNLQVILHNMSKVYGNVMTIWIGSWRPVIVVSDIERAWEVLVNKSSDYSGRDMPEITKIISADWKTISTSDSGPHWTNLRKGLQNVALSPHNLAAQFQFQERDICKLIETLKEEAKLNNGIVKPLDHLKKATIRLISRLVFGQDFDNSKYVEDMHHAIEELIRVSGYARLADAFYYAKYLPSQKKAVRDVEEAQRRVQRLVRPFLSLNPPTNCYLHFLRSQNYSDEVIIFAIFEAYLLGVDSTSSTTAWALAFLVREPNVQEKLYQELKNFTAKNGREMLKVEDINKLPYLQAVIKETMRMKPIAPLAIPHKACRDTSLKGRKIDKGTQIMVNIYALHHNENVWKEPFKFMPERFLQTDQDVNGKAMDQSLLPFSAGMRICAGMELGKLQFSFSLANLLNTFQWSCVADGVLPDMSDQLGFVLLMKTPLEARITPRC
B3 was tested, and the “conversion of scoulerine to the Ring A product nandinine (Ring A closure)” value (“conversion of scoulerine … (Ring A closure)” below) (scoulerine [2]) was greater than 95% and the “conversion of supplemented scoulerine to N-methylstylopine” value (shortened to “conversion of supplemented scoulerine”) (scoulerine [3]) was greater than 98%.

B4: EX76: CYP719 from Nandina domestica, SEQ ID NO: 355 (protein, listed as Nandina domestica)
chain: MEESFWIVSATIVVVFVIATMFRKSSSISSKTEWPAGPKKLPVIGNLHQLGGDVLHVVLANLAKVYGTVMTVWVGSWKPMIVISDIDRAWEVLVNKSSDYSGRAMPEITEIISAKGKTISTSDSGPHWSNLRKGLQNVALSPHNIAAQSRFQESDITKMIKTLKQEAASNNGIVQPLDHLKKSTVRLISRLIFGQDFDDDEYVEAMHLAVEELIRVSGYARLAEAFYYAKYLPSHKRAVSEVWEANRRVKRIVKPRLSANPPPNCYLHFLSSQDYSEEMIIFAIFEAYLLGVDSTSSTTAWALGFLIREPKVQERLYQELKNCAGENGLIKVEDINKLPYLQAVLKETMRMKPIAPLAIPHKAVRETSLAGNKVEPGTRVMVNLYAIHHNPKVWIDPHKFKPERFLQGEENGGGNLKLMEQSLLPFSAGMRTCAGMELGKLQFGFSLANLVNAFQWDCAKKGMFPDMSDLLGFVLLMKTPLQAKIVPRGSPSINGY
For B4, the “conversion of scoulerine … (Ring A closure)” value (scoulerine [2]) was greater than 95% and the “conversion of supplemented scoulerine” value (scoulerine [3]) was greater than 98%.

B5: EX96: CYP719 from Sanguinaria canadensis, SEQ ID NO: 375 (protein, listed as Sanguinaria canadensis)
chain: MEFEKIMMSNPWILAATTAVVFISITAIFFRRKSSSMEWPTGPKTLPIIGNMHLLGGTALHVVLHNFAKIYGNVMTIWIGSWRPVIVVSDIDRAWEVLVNKSSDYSARDMPEITKIISADWKTISTSDSGPFWTNLRKGLQNVALSPHNLAAQARFQERDISKMIETLKEEAALNNGIVKPLDHLKKATVRLISRLIYGQEFDNNKYVEDMHHAIEELIRVSGYARLAEAFYYAKYLPSHKKAVRDVEEANRRVKNLVRPFLSSNPPTNCYLHFLRTQNYPEEVIIFAIFEAYLLGVDSTSSTTAWALAFLVREPNVQEKLYQELKNFTTNNDRKMLKVEDINKLQYLQAVIKETMRMKPIAPLAIPHKACKETSLMGSKVDKGTRVMVNIYALHHNQKVWKEPYKFMPERFLETDNQDGNVGKAMEQSLLPFSAGMRICAGMELGKLQFTFSLANLVNAFKWSCVSDGVLPDMSDQLGFVLLMKNPLEARIVPRS
For B5, the “conversion of scoulerine … (Ring A closure)” value (scoulerine [2]) was greater than 95% and the “conversion of supplemented scoulerine” value (scoulerine [3]) was greater than 98%.

B6: EX94: N-truncated Papaver somniferum stylopine synthase (CYP719A20) with lettuce germacrene A oxidase N-terminal domain, SEQ ID NO: 373 (protein, listed as Papaver somniferum)
chain: MELSITTSIALATIVFFLYKLATRPKSTKKQLPEASRLPIIGHKRKKSSTMVWPTGPKTLPIIGNMHVLGGTALQVVLHNLAKIHGNVMTIWIGSWRPVIVVSDIDRAWEVLVNKSSDYSARDMPEITKIISADWKTISTSDSGPGWSNLRKGLQNVALSPHNLAAQSQFQEKDITKMIQSLKKEAASNNGIVKPIDHLKKATLRLISRLIFGQDFDDDKYVDDMHHAIEELIRVSGYAQLAEAFYYAKYLPSHKKAVRDVEEANQRVKKLVRPFLSLNPPTNTYLHFLNSQKYDEEVIIFAIFEAYLLGVDSTSLTTAWALAFLIREPVVQDKLYQELKNLTAKNDCEIVKVEDLNKLQYLQAVLKETMRMKPIAPLAIPHKACRDTSLKGNKIDQGTQVMVNIYALHHNEKVWKEPFKFMPERFLQTQDVVNGKGMEQSLLPFSAGMRICAGMELGKLQFSFSLANLVNAFEWSCVSDGVLPDMSDQLGFVLLMKTPLQARIVPRV
B6 was tested, and the “conversion of cheilanthifoline to stylopine” value (cheilanthifoline) was greater than 98%.
